Laboratory results: patent US20040033229A1
No constants are given. Whether binding was seen depends on the method and setting. Some binding calls cover weakened binding; strength is not graded here.

By UniProt entry, the sequences of proteins in these tests, tags left out. Where a name states a change or a piece, a line headed by the entry shows the natural chain unless it says otherwise.
UniProt Q04609: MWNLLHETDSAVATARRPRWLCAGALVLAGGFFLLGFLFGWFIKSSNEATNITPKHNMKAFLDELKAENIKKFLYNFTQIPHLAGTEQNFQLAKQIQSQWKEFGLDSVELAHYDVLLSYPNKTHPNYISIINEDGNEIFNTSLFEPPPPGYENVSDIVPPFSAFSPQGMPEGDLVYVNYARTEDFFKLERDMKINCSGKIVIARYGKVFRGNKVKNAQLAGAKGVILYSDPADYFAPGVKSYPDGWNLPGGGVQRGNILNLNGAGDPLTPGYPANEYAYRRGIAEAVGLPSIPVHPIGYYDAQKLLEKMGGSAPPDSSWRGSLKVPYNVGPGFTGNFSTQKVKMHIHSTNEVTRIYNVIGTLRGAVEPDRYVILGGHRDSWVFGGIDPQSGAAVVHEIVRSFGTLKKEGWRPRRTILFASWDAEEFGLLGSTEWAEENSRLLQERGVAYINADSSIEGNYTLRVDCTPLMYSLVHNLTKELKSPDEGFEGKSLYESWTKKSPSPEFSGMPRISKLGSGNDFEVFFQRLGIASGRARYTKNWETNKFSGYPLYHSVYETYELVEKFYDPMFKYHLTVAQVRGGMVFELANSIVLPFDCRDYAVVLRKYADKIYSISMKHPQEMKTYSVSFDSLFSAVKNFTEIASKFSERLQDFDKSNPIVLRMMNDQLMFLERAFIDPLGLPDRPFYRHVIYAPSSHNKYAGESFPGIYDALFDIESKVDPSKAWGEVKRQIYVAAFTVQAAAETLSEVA

Molecular target: prostate specific membrane antigen (PSMA), full-length, on the cell surface (human) (UniProt Q04609)
Assay: flow cytometry, 3T3-PSMA against 3T3 cells

binding: binds
B1: AB-PG1-XG1-051 (antibody, IgG1, V domains shown)
VH: QVQLVESGGGVVQPGRSLRLSCAASGFTFSSYGMHWVRQAPGKGLDWVAIIWHDGSNKYYADSVKGRFTISRDNSKKTLYLQMNSLRAEDTAVYYCARAWAYDYGDYEYYFGMDVWGQGTTVTVSS
VL: DIQMTQSPSSLSASVGDRVTITCRASQGISHYLAWFQQKPGKAPKSLIYAASSLQSGVPSKFSGSGSGTDFTLTISSLQPEDFATYYCQQYNSFPLTFGGGTKVEIK
